# According to the supplement of paper PMC8728848:
# The other results are listed elsewhere or left out.
# B1: Vd7LysM (Verticillium dahliae) (protein)
# chain: RRGPEPKYPPAAGTSSYCSYWVDYEGDKSCSRVLEDNVVVLKDFARWNPTVGADCSGIKAGNSYCVEAFGEPEPIEVTTTTRAATTTTQPTATTTTFANGIATPQPTQSGMVTNCNKFHWIAEGVSCSQVISFQKITLADFVKWNPSVKSDCSGMWAGVNVCVGVVGSSTDTAKPTTTAPSNGVVTPQPTQPSMVTNCNKFHWIAKGVTCQQVISYQKISLADFVKWNPSVLSDCSGMWAEVQVCVGVIGSTPTTLATTTTTAGNGVSTPLPTQPGMVTNCAKFHWVAKGVTCNQIYSFQKITLEQFVSYNPTVKSDCSGMQAEVQVCVGLIAGTTPTTTRPPTTTAPGNGVSTPQPTQPGMVTNCAKFHWVAKGVTCNQIYSFQKITLEQFVSFNPTVKSDCTGMQAEVNVCVGLIGGNPTPTQTGNGIATPTPIQPGMVSNCKKFHWIAQGVTCQQVISFQKITLADFVKWNTGVGSDCRTMWAETNVCVGV
# Tests used:
# [1] = target: Neu5Gc(a2-8)Neu5Gc(a2-6)Gal(b1-4)GlcNAc; test: glycan array binding signal (z-score within array); higher = stronger binding; details: glycan notation: IUPAC condensed, linker removed
# Outline: (§1)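 Negative Z-scores can be read as non-binding. The Z-score is calculated within each array and then averaged across arrays of one protein sequence at different concentrations or buffers and across linkers. Arrays, 3228 in all, were curated from the Consortium for Functional Glycomics database and kept only where the protein sequence was available.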
# [2] = target: Neu5Gc(b2-6)Gal(b1-4)GlcNAc; test: as above; details: glycan notation: IUPAC condensed, linker removed
# Outline: as §1
binder,measurement,setting,value
B1,glycan array binding signal (z-score),[1],-1.51
same,glycan array binding signal (z-score),[2],-0.471
